Out of some 390,000 compounds screened, about 610 (0.16%) were called active. Inconclusive results, whose numbers are uncertain, are shown with a selection of clear calls. The call rests on the fitted dose curve; in most records, active means well fitted inhibition curve with a large enough effect; inconclusive means small, poorly fitted or top-dose-only effect, or effect the other way, or another doubt; inactive means no such curve, though single readings can be large or run the other way. Where the call is inconclusive, the potency comes from a doubtful curve fit.
experiment: Nrf2 qHTS screen for inhibitors: counterscreen for cytotoxicity; conditions: A549 ARE-Fluc cells, CellTiter-Fluor viability, 18-24 h; series mostly up to 46 µM
Procedure, shortened: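 Cytotoxicity counterscreen: CellTiter-Fluor fluorescence was measured in A549 ARE_Fluc cells after 18-24 h of compound exposure in a concentration series. The subsequent BugLite luminescent read reports ARE-luciferase activity.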
Potency means the concentration at half of the fitted maximal effect.

Structure (SMILES)	Potency
COC(=O)c1ccc(N2CCN(S(=O)(=O)c3ccc4ccccc4c3)CC2)c([N+](=O)[O-])c1	inactive
CCOC(=O)c1c(C)[nH]c(N=Nc2cccc(C)c2)c1C	inconclusive: 20.6 µM [falling, single point]
CCN1CCN(S(=O)(=O)c2ccc(S(=O)(=O)N(CC)Cc3ccccc3)cc2)CC1	inconclusive: 32.6 µM [activator, partial curve, poor fit]
CCOC(=O)Cc1c(C)c2c(O)cc(O)cc2oc1=O	inconclusive: 18.4 µM [activator, partial curve, poor fit]
N=c1c2c(ccn1-c1ccccc1)Oc1ccc3ccccc3c1C2c1ccccc1 (centres undefined)	inconclusive: 20.6 µM [falling, single point]
CC(C)(C)c1ccc(S(=O)(=O)Nc2ccc(Cc3ccncc3)cc2)cc1	inconclusive: 29.1 µM [falling, single point]
CCCCNC(=O)Cn1c(SCc2cccc(C)c2)nc2ccncc21	inactive
O=C(O)c1ccc(COc2ccc(/C=N/NC(=O)c3cccs3)cc2)cc1	inconclusive: 4.61 µM [falling, partial curve, poor fit]
CCOc1ccc2nc(NC(=O)c3nc(SC(C)C)ncc3Cl)sc2c1	inconclusive: 18.4 µM [falling, partial curve, poor fit]
N#Cc1ccccc1Cn1c(SCC(=O)NCc2ccccc2)nc2ccccc21	inactive
CCCCn1c(N)c(N(CCC(C)C)C(=O)C2CSC3(C)CCC(=O)N23)c(=O)[nH]c1=O (centres undefined)	inconclusive: 32.6 µM [falling, partial curve, poor fit]
CCOc1ccc(S(=O)(=O)N2CCN(C)CC2)cc1NC(=O)c1ccccc1F	inconclusive: 1.46 µM [activator, full curve, poor fit]
O=C(O)c1ccccc1-c1ccc(/C=C2\SC(=O)N(c3ccccc3)C2=O)o1	inconclusive: 23.1 µM [falling, partial curve]
CCCCNc1c(-c2ccc(SC(C)CC)c(OC)c2)nc2ccc(Cl)cn12 (centres undefined)	inactive
CCC1=C(OC(=O)N(CC)CC)N2C(=O)OC(=NCC3CC3)[C@]2(Cc2ccccc2)[C@H]2C1=CC[C@H]1C(=O)N(CC(=O)OC)C(=O)[C@H]12	inconclusive: 23.1 µM [falling, partial curve, poor fit]
COc1cc(NC(=O)Cn2c(-c3ccccc3)cc(C(C)=O)c2C)cc(OC)c1	inactive
CCC(C)N(C)Cc1cccc(C2(O)CCN(S(=O)(=O)c3ccc(F)cc3)CC2)c1 (centres undefined)	inconclusive: 23.1 µM [activator, partial curve, poor fit]
Cc1cc(O)c(C=O)c2c1C(=O)Oc1c(CO)c(O)c3c(c1O2)C(O)OC3=O (centres undefined)	inconclusive: 29.1 µM [falling, partial curve, poor fit]
OCCN(CCO)c1nc(N2CCCCC2)c2nc(N(CCO)CCO)nc(N3CCCCC3)c2n1	inconclusive: 23.1 µM [activator, partial curve]
CN(Cc1ccccc1)C(=O)CSc1c2c(nc3ccc(Cl)cc13)CCCC2	inconclusive: 29.1 µM [falling, single point]
N#Cc1ccc(-c2ccc(OCC(=O)NCCc3ccccc3)cc2)cc1	inactive
Cc1ccc(-n2cc(CNCCCn3cccn3)c(-c3cccc(C)c3)n2)cc1	inconclusive: 20.6 µM [falling, single point]

Structure (SMILES)	Potency
CCCc1cnc(N2CCN(S(C)(=O)=O)CC2)nc1	inconclusive: 32.6 µM [falling, partial curve, poor fit]
Cc1c(N=C2N=C(NC(=O)c3cccs3)c3ccccc32)c(=O)n(-c2ccccc2)n1C	inconclusive: 14.6 µM [falling, partial curve]
COc1ccc(C2C(C(C)=O)=C(C)N=c3s/c(=C\c4ccco4)c(=O)n32)c(OC)c1 (centres undefined)	inconclusive: 20.6 µM [falling, single point]
Cc1ccc(OCc2cc(C(=O)N(C)Cc3cnc4ccccn34)no2)cc1C	inactive
CN(C)c1ccc(C(CNC(=O)c2ccc(C(C)(C)C)cc2)N2CCCC2)cc1 (centres undefined)	inactive
C/C(CCC(C)C)=N\NS(=O)(=O)c1ccc(C)c([N+](=O)[O-])c1	inconclusive: 14.6 µM [activator, partial curve, poor fit]
O=C(NCCNc1ccc([N+](=O)[O-])cc1)c1ccccc1Br	inconclusive: 16.4 µM [falling, single point]
N=c1n(CCN2CCCCC2)c2ccccc2n1CC(=O)c1cccc([N+](=O)[O-])c1	inactive
O=S(=O)(Nc1ccc(O)c(CN2CCCCC2)c1)c1ccccc1	inconclusive: 32.6 µM [activator, partial curve, poor fit]
CCCOC(=O)c1ccc(Oc2cn[nH]c2-c2ccc(O)cc2O)cc1	inactive
O=C(CCc1ccc(S(=O)(=O)NCCc2ccccc2)cc1)Nc1ccc2c(c1)OCCO2	inactive
O=C(Cc1ccc(Cl)cc1)NCC(=O)N1CCN(Cc2ccccc2)CC1	inactive
COc1ccc(-c2nc(SCC(=O)NCc3ccccc3Cl)n[nH]2)cc1	inconclusive: 29.1 µM [falling, single point]
COc1ccc2oc(C(=O)OCC(=O)NC3CCCC3)c(C)c2c1	inactive
COc1c(C(=O)Nc2ccc(CN3CCOCC3)cc2)cc2ccccc2c1Br	inconclusive: 16.4 µM [falling, partial curve, poor fit]
CCOc1ccccc1CN1CCN(C2CCN(c3ccccc3F)CC2)CC1CCO (centres undefined)	inconclusive: 3.26 µM [activator, partial curve, poor fit]
COc1ccc(-c2ccc(C(=O)C3CC3)cc2)cc1	inconclusive: 13 µM [activator, partial curve, poor fit]
COc1ccc(N(C(=O)/C=C/C(=O)Nc2cc(C)on2)C(C(=O)NC2CCCC2)c2ccccc2C)cc1 (centres undefined)	inconclusive: 29.1 µM [falling, partial curve, poor fit]
CCC[C@@H]1C[C@@]1(CCC)[C@@H](NP(=O)(c1ccccc1)c1ccccc1)c1ccc(C(=O)OC)cc1	inconclusive: 16.4 µM [falling, single point]
CCOC(=O)c1c(N)sc(C(O)(C(F)(F)F)C(F)(F)F)c1-c1ccc(F)cc1	inconclusive: 25.9 µM [falling, single point]
COc1ccc(-c2nnc(-c3ccccc3)o2)cc1OC	inactive
CC1=C(C(=O)OC(C)C)C(c2ccc(Cl)cc2)n2c(s/c(=C\c3ccc(OCC(=O)O)cc3)c2=O)=N1 (centres undefined)	inconclusive: 6.51 µM [falling, partial curve, poor fit]

Structure (SMILES)	Potency
CC(C)C[C@H]1CNC(=S)N1CC1CCCN1C[C@H](CC(C)C)N1C[C@H](Cc2ccc(O)cc2)N(CC2CCCCCC2)C1=S (some centres undefined)	inactive
CC(CN1CCCC1)OC(=O)c1ccc(Br)cc1 (centres undefined)	inactive
CCCCOc1cccc(C(=O)NC(=S)Nc2ccc(Cl)c(C(=O)O)c2)c1	inactive
Cc1cccc2sc(N(CCN(C)C)C(=O)/C=C/c3cccs3)nc12	inconclusive: 20.6 µM [falling, single point]
Cc1ccc2c(c1)nnn2C1CCN(S(=O)(=O)c2ccc(C(=O)N3C(C)CCCC3C)cc2)CC1 (centres undefined)	inconclusive: 20.6 µM [falling, partial curve, poor fit]
COc1ccc(NC(=O)CCS(=O)(=O)c2ccccc2Cl)cc1S(=O)(=O)Nc1ccc(Cl)cc1	inconclusive: 29.1 µM [falling, partial curve, poor fit]
O=C(NCCCN1CCCCC1)c1ccc2c(c1)NC(=O)C(N1CCCCC1)S2 (centres undefined)	inconclusive: 20.6 µM [activator, partial curve, poor fit]
COc1cc(C2CC(=O)Nc3c2c(=O)n(C)c2ncnn32)cc(OC)c1OC (centres undefined)	inactive
N#Cc1c(NC(=O)c2ccc([N+](=O)[O-])o2)sc2c1CCC2	inconclusive: 8.2 µM [falling, partial curve]
CCc1nnc(NC(=O)c2sc3nc4c(cc3c2N)CCCCC4)s1	inconclusive: 23.1 µM [activator, single point]
Cc1ccc(S(=O)(=O)N(CC(=O)NCCC2=CCCCC2)Cc2ccccc2)cc1	inconclusive: 25.9 µM [falling, single point]
Cc1ccc(C(=O)NNc2c3ccccc3nc3ccccc23)cc1	inconclusive: 18.4 µM [falling, partial curve, poor fit]
COc1ccc(-c2nc(CSCC(=O)N3CCN(c4ccccc4)CC3)c(C)o2)cc1	inconclusive: 8.2 µM [falling, partial curve, poor fit]
COc1ccc(C2Nc3ccccc3C(=O)N2Cc2ccco2)cc1COc1c(C)cccc1C (centres undefined)	inconclusive: 29.1 µM [falling, single point]
CC(C)c1ccc(NC(=O)Cn2c(=O)oc3ccccc32)cc1	inactive
CCOc1cc(S(=O)(=O)NCCc2c(C)[nH]c3ccc(C)cc23)ccc1Br	inactive
Cc1ccc(-c2nnc3sc(C4COc5ccccc5O4)nn23)cc1 (centres undefined)	inactive
O=C(Nc1cccc(-c2nc3ccccc3o2)c1)c1cccc2c(Cl)cccc12	inactive
CC1=CC(c2ccccc2)=Nc2ccc(C)cc2N1	inconclusive: 1.84 µM [activator, partial curve, poor fit]
CN(C)c1oc(-c2ccccc2Cl)nc1P(=O)(c1ccccc1)c1ccccc1	inconclusive: 29.1 µM [falling, single point]

— PubChem BioAssay AID504648 (National Center for Advancing Translational Sciences (NCATS), 2011)
